From the supplement of paper PMC12819154, “High-throughput peptide-centric local stability assay extends protein–ligand identification to membrane proteins, tissues and bacteria” (Nature Structural & Molecular Biology, 2025)
The list shows a part of the results. Most entries show no effect beyond the scatter of the controls.

Protein sequences, listed by entry. Tags and fused reporters are not part of them. Lines headed by an entry give the natural chain unless they say otherwise; changes in a name come on top.
UniProt P33927: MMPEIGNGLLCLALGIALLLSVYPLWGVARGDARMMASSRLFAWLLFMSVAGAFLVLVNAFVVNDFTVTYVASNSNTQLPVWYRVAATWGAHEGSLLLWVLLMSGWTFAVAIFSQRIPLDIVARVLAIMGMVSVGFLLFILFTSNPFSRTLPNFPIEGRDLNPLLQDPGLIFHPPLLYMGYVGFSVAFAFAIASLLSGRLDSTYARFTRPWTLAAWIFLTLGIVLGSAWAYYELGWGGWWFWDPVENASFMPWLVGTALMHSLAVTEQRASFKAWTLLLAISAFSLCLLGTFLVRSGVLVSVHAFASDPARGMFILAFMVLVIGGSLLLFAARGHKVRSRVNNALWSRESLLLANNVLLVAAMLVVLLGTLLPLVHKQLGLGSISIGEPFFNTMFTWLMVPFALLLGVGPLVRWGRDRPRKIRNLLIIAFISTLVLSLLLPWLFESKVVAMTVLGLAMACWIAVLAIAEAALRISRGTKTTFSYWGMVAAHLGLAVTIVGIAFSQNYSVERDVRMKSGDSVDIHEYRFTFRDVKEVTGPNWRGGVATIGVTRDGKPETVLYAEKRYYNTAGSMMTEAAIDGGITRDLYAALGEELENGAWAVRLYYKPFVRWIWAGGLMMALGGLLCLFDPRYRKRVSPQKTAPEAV
UniProt P41039: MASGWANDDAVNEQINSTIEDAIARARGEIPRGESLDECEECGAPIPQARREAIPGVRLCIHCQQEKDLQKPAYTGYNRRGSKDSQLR
UniProt P37751: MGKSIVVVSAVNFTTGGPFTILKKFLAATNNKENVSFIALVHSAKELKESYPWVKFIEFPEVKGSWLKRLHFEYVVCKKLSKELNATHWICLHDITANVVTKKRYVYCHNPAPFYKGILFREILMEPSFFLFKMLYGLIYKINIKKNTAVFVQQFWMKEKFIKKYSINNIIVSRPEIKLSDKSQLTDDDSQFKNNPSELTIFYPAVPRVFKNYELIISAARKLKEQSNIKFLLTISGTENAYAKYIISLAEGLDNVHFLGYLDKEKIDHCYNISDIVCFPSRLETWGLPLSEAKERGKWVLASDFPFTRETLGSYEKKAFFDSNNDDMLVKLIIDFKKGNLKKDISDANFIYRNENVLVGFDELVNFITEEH
UniProt P36548: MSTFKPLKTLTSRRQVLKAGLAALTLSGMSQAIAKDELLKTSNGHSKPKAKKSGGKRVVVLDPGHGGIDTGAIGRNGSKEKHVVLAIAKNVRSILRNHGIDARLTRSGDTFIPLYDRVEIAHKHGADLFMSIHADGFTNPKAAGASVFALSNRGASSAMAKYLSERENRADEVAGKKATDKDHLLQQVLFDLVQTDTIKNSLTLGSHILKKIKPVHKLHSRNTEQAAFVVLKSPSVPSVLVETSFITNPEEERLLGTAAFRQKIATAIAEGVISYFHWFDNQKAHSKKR
UniProt P36683: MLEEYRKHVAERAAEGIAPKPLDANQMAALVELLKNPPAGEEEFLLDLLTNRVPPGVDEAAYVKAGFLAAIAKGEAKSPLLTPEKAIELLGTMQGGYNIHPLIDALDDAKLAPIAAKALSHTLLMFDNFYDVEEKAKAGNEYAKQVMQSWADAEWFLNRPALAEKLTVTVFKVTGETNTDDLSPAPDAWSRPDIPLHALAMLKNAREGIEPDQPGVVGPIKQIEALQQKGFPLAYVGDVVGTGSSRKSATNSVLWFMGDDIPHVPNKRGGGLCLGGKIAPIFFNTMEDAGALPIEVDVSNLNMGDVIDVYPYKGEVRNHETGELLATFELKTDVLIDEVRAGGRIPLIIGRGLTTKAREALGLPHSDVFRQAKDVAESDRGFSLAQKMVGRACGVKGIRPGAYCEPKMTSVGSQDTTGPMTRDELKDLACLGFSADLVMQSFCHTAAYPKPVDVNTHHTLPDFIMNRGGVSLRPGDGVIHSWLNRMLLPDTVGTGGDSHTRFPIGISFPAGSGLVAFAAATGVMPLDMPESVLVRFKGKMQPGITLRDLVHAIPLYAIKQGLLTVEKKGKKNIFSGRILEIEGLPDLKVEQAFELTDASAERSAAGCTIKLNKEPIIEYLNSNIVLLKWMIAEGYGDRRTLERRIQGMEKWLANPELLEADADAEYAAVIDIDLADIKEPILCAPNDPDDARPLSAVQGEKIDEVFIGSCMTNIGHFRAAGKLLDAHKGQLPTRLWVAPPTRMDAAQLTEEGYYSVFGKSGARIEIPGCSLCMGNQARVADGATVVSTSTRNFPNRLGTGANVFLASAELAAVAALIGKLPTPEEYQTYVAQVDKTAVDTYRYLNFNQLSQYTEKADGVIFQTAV
UniProt P45544: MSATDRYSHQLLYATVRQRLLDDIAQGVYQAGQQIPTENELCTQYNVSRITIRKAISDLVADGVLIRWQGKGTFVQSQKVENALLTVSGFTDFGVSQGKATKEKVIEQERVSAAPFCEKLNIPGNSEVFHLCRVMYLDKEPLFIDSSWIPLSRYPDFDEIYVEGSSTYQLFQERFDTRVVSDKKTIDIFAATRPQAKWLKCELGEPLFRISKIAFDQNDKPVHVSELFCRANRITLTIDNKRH
UniProt P42909: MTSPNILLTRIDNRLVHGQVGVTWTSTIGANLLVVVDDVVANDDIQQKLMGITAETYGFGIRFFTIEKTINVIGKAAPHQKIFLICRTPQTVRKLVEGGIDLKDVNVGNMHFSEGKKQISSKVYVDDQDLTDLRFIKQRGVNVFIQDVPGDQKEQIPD
UniProt P36999: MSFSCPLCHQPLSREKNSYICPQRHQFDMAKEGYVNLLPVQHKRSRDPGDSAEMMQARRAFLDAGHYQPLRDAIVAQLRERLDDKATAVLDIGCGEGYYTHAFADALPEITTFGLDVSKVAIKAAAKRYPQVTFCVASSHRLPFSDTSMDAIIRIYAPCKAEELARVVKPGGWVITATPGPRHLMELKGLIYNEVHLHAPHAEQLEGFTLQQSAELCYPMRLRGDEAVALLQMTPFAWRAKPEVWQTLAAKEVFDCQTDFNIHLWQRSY
UniProt P39377: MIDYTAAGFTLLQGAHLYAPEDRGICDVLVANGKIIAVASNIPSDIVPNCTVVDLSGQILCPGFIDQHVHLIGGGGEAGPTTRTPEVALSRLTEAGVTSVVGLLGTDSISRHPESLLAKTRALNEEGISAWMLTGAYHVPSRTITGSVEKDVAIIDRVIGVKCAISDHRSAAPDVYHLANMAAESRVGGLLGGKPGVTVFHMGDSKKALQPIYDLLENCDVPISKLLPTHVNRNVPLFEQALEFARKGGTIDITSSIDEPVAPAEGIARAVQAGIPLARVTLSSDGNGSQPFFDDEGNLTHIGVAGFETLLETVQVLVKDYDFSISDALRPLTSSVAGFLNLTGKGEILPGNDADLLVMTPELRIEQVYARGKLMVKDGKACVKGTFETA
UniProt P34209: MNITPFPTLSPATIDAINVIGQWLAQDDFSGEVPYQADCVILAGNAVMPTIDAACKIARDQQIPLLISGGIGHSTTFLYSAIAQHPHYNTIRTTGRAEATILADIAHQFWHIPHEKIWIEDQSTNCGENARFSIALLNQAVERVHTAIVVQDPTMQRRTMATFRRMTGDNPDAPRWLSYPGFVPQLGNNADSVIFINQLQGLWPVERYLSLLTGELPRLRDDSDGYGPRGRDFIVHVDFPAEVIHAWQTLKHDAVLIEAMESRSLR
UniProt P41052: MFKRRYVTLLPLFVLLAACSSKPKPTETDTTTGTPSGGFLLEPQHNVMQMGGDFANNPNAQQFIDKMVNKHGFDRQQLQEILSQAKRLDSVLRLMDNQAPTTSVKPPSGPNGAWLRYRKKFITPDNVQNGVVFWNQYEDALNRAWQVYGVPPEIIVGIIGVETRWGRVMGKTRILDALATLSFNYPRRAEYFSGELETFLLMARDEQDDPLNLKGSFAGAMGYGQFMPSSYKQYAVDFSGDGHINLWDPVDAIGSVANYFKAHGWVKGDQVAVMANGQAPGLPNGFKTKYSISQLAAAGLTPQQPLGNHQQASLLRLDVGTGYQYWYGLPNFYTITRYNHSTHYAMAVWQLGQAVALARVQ
UniProt P45468: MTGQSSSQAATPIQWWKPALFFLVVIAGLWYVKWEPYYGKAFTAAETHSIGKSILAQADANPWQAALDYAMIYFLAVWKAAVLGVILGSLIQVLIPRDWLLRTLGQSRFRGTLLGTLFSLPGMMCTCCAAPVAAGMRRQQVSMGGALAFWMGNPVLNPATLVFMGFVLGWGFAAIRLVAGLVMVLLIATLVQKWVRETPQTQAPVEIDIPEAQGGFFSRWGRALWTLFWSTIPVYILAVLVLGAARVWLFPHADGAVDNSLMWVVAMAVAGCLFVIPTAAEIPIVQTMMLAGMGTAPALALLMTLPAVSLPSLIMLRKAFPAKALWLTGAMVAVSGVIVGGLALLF
UniProt P39410: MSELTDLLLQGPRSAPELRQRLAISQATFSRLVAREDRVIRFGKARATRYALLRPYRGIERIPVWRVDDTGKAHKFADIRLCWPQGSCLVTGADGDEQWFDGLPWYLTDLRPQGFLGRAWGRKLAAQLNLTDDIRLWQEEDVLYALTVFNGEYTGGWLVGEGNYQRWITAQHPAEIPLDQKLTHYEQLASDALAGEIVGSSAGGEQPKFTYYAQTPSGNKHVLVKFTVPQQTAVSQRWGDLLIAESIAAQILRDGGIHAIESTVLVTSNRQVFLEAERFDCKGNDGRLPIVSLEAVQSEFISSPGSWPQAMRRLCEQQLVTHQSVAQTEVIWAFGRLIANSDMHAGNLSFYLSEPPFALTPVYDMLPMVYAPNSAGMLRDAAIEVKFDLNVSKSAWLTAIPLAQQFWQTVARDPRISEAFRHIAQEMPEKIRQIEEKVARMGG
UniProt P42603: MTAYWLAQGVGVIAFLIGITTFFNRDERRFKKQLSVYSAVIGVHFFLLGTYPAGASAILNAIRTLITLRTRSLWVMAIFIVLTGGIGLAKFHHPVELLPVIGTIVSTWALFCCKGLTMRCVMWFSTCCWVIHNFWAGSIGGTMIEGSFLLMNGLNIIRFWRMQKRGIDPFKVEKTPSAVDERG
UniProt P37685: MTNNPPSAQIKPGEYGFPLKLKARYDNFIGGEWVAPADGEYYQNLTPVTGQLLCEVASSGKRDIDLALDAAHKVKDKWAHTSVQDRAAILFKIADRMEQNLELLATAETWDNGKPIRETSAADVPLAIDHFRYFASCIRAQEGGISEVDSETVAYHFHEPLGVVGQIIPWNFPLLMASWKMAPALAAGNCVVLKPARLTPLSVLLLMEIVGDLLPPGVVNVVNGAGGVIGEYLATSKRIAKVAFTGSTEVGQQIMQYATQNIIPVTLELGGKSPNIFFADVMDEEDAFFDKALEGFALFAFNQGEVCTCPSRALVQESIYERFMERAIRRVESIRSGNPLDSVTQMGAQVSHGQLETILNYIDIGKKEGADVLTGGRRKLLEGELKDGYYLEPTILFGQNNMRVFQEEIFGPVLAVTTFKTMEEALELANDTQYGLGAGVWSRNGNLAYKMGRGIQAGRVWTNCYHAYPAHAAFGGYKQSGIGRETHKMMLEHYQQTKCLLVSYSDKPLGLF
UniProt P37749: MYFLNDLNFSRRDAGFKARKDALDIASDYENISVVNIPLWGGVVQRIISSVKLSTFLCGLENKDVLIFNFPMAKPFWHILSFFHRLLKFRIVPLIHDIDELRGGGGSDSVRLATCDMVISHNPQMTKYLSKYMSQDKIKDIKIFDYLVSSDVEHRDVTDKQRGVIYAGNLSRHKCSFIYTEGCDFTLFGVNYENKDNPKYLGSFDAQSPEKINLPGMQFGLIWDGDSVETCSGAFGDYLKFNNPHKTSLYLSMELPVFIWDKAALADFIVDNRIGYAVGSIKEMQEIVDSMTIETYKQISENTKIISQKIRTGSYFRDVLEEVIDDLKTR
UniProt P37623: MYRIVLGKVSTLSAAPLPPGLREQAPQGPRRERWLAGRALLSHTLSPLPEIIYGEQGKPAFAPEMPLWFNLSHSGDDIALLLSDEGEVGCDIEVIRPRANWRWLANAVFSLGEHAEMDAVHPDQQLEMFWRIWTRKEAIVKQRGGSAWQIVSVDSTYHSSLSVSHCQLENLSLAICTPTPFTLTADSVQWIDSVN
UniProt P37009: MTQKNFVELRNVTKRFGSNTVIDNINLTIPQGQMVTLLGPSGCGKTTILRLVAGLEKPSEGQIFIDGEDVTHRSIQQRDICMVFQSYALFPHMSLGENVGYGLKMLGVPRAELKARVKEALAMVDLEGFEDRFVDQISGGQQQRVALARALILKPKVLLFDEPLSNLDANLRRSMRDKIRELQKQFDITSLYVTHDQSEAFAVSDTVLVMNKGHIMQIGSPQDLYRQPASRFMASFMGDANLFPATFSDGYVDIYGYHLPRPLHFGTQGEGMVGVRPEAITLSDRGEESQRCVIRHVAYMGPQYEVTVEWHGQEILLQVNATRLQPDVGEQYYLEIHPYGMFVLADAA
UniProt P39212: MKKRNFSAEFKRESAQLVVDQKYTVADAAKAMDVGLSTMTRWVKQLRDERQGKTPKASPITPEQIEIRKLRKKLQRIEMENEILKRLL
UniProt P39334: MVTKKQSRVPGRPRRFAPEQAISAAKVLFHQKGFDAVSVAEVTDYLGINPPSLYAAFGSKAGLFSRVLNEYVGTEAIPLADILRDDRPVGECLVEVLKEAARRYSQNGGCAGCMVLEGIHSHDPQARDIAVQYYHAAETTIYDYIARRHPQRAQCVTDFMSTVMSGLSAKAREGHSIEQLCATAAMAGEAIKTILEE

Compound: CC1(C)S[C@@H]2[C@H](NC(=O)[C@H](N)c3ccccc3)C(=O)N2[C@H]1C(=O)O [ampicillin]
Assay: log2 fold change of tryptic peptide abundance, ligand vs vehicle (limited proteolysis) (log2 ratio); higher = more trypsin-susceptible (destabilized)
Settings: ligand concentration: 10 uM; sample: E. coli crude lysate

Target | log2 fold change
UniProt P33927 (peptide sequence: GGVATIGVTR, peptide start residue: 543) | -0.22
UniProt P41039 (peptide sequence: REAIPGVR, peptide start residue: 51) | -0.284
UniProt P39173 (peptide sequence: KLDELDLIVVDHPQVK, peptide start residue: 22) | 0.435
UniProt P37751 (peptide sequence: GKWVLASDFPFTR, peptide start residue: 297) | -0.259
UniProt P37648 (peptide sequence: DIGLGFDCR, peptide start residue: 320) | -0.233
UniProt P37440 (peptide sequence: EGRIDILVNNAGVCR, peptide start residue: 80) | 0.349
UniProt P38097 (peptide sequence: AAMSLDEQWR, peptide start residue: 855) | -0.358
UniProt P36548 (peptide sequence: TSNGHSKPK, peptide start residue: 41) | -0.459
UniProt P36683 (peptide sequence: AGFLAAIAK, peptide start residue: 65) | 0.374
UniProt P36566 (peptide sequence: NFDDIAEKFSR, peptide start residue: 5) | -0.44
UniProt P45395 (peptide sequence: GFTAEDFALSHPGGALGRK, peptide start residue: 183) | -0.771
UniProt P45544 (peptide sequence: GTFVQSQK, peptide start residue: 72) | 0.417
UniProt P33667 (peptide sequence: GEWAEVAEWVK, peptide start residue: 352) | 0.562
UniProt P45579 (peptide sequence: LGINNAQAIR, peptide start residue: 197) | -0.0988
UniProt P39346 (peptide sequence: TQSCVVAGK, peptide start residue: 5) | -0.294
UniProt P42909 (peptide sequence: DVNVGNMHFSEGKK, peptide start residue: 104) | -0.376
UniProt P37025 (peptide sequence: EQIIHWR, peptide start residue: 19) | -0.857
UniProt P36999 (peptide sequence: NSYICPQRHQFDMAK, peptide start residue: 17) | -1.21

9 consecutive entries from above, for reference:
Target | log2 fold change
UniProt P33927 (peptide sequence: GGVATIGVTR, peptide start residue: 543) | -0.22
UniProt P41039 (peptide sequence: REAIPGVR, peptide start residue: 51) | -0.284
UniProt P39173 (peptide sequence: KLDELDLIVVDHPQVK, peptide start residue: 22) | 0.435
UniProt P37751 (peptide sequence: GKWVLASDFPFTR, peptide start residue: 297) | -0.259
UniProt P37648 (peptide sequence: DIGLGFDCR, peptide start residue: 320) | -0.233
UniProt P37440 (peptide sequence: EGRIDILVNNAGVCR, peptide start residue: 80) | 0.349
UniProt P38097 (peptide sequence: AAMSLDEQWR, peptide start residue: 855) | -0.358
UniProt P36548 (peptide sequence: TSNGHSKPK, peptide start residue: 41) | -0.459
UniProt P36683 (peptide sequence: AGFLAAIAK, peptide start residue: 65) | 0.374

Remaining list, next part:

Target | log2 fold change
UniProt P39377 (peptide sequence: IEQVYAR, peptide start residue: 365) | -0.367
UniProt P37653 (peptide sequence: AFSGLQNIR, peptide start residue: 105) | -0.219
UniProt P34209 (peptide sequence: RTMATFR, peptide start residue: 158) | 0.312
UniProt P41052 (peptide sequence: QQLQEILSQAK, peptide start residue: 76) | -0.0726
UniProt P45468 (peptide sequence: AFTAAETHSIGK, peptide start residue: 41) | 0.0921
UniProt P39410 (peptide sequence: DGGIHAIESTVLVTSNR, peptide start residue: 254) | 0.234
UniProt P39310 (peptide sequence: TMAQLFR, peptide start residue: 138) | 0.15
UniProt P40710 (peptide sequence: FMVANNAELER, peptide start residue: 171) | 0.0687
UniProt P42603 (peptide sequence: TPSAVDERG, peptide start residue: 175) | -0.0946
UniProt P37745 (peptide sequence: GLHFQRGEYAQDKLVR, peptide start residue: 60) | -0.454
UniProt P37685 (peptide sequence: ALVQESIYER, peptide start residue: 313) | -0.121
UniProt P37749 (peptide sequence: GVIYAGNLSR, peptide start residue: 163) | -0.152
UniProt P37623 (peptide sequence: EQAPQGPR, peptide start residue: 23) | -0.0382
UniProt P37009 (peptide sequence: GHIMQIGSPQDLYR, peptide start residue: 213) | 0.0867
UniProt P39212 (peptide sequence: AMDVGLSTMTR, peptide start residue: 31) | -0.286
UniProt P45527 (peptide sequence: WQQTPQGLESR, peptide start residue: 201) | -0.0708
UniProt P39334 (peptide sequence: DDRPVGECLVEVLK, peptide start residue: 85) | 0.469
UniProt P39838 (peptide sequence: KGLQLLINNHLK, peptide start residue: 547) | 0.356
